Data from article PMC5732799.
Results are given in words; binding and its absence hold for the method and conditions named. In cells and extracts the contact can be indirect. Some results given as binding are weak or reduced against the parent protein; the word gives no strength.

T1: activating transcription factor-2 (ATF-2) (human (endogenous in A549 and PC9)) (UniProt P15336)
T1 sequence: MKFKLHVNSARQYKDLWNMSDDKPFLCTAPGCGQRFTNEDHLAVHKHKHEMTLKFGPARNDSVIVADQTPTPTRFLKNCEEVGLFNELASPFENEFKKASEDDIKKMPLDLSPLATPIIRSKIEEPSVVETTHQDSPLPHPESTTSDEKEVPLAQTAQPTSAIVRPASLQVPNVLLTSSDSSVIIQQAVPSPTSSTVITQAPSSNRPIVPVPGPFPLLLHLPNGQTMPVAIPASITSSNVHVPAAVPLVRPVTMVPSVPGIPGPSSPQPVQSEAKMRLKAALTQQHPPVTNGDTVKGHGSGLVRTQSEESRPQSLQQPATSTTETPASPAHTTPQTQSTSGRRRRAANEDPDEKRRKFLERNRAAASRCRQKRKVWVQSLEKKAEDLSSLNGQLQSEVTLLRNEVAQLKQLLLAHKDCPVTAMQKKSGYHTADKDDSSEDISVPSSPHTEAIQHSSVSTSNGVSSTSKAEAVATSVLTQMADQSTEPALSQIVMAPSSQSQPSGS

T2: activating transcription factor-2 (ATF-2) (human (endogenous in A549 and PC9)), P15336
T2 chain: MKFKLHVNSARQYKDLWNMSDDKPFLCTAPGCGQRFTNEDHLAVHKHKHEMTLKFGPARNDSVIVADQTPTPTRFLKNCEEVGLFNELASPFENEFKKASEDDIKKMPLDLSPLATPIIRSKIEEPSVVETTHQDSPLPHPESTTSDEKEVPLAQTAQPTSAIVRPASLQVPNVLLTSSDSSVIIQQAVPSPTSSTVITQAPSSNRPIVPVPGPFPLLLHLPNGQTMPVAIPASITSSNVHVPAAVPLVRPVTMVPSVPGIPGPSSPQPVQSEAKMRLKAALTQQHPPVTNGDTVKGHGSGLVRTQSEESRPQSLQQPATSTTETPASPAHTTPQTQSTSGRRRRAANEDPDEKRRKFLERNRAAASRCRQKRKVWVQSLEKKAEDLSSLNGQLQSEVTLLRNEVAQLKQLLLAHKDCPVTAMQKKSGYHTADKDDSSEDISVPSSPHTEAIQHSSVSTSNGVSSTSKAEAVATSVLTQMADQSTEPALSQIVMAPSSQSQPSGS


Tests used:
[1] = target: T1, activating transcription factor-2 (ATF-2) (human (endogenous in A549 and PC9)); test: condition: only cells transfected with miR-216b mimics (50 pmol/ml), which lower the c-Jun protein level; co-IP; A549 and PC9 cells transfected with miR-216b mimics (50 pmol/ml) and treated with cisplatin (2 uM); RIPA lysate incubated with ATF2 antibody at 4 °C overnight, protein G agarose beads, western blot
[2] = target: T2, activating transcription factor-2 …; test: co-IP; A549 and PC9 cells treated with cisplatin (2 uM); RIPA lysate incubated with ATF2 antibody at 4 °C overnight, protein G agarose beads, washed three times with RIPA buffer, western blot; settings: remark: other sources report otherwise

Molecule	binding [1]	binding [2]
c-Jun (from UniProt P05412 1-331)	no binding	
c-Jun, P05412 1-331 (protein) MTAKMETTFYDDALNASFLPSESGPYGYSNPKILKQSMTLNLADPVGSLKPHLRAKNSDLLTSPDVGLLKLASPELERLIIQSSNGHITTTPTPTQFLCPKNVTDEQEGFAEGFVRALAELHSQNTLPSVTSAAQPVNGAGMVAPAVASVAGGSGSGGFSASLHSEPPVYANLSNFNPGALSSGGGAPSYGAAGLAFPAQPQQQQQPPHHLPQQMPVQHPRLQALKEEPQTVPEMPGETPPLSPIDMESQERIKAERKRMRNRIAASKCRKRKLERIARLEEKVKTLKAQNSELASTANMLREQVAQLKQKVMNHVNSGCQLMLTQQLQTF		binds
